In PubChem BioAssay AID504834 (National Center for Advancing Translational Sciences (NCATS), 2011):
“And” between values parts separate entries of the source, which are not always exact repeats. Equal values may be shown once. In all, about 320,000 compounds went through this assay and about 22,000 (6.9%) were called active. Inconclusive results, whose numbers are uncertain, are shown with a selection of clear calls. Calls follow the shape of the dose curve; as a rule, active = well fitted inhibition curve with a large enough effect; inconclusive = small, poorly fitted or top-dose-only effect, or another doubt; inactive = no such curve, though single readings can be large or run the other way. Where the call is inconclusive, the potency comes from a doubtful curve fit.

test: Primary qHTS for delayed death inhibitors of the malarial parasite plastid, 96 hour incubation; settings: P. falciparum luciferase reporter growth; series mostly up to 28.7 µM
Outline: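 Delayed-death screen, second-generation endpoint: infected erythrocytes, 2% hematocrit, 0.05% parasitemia final; 96 hours at 37 C, 5% CO2; luciferase detection reagent; luminescence decrease equals reduced growth.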
Potency is read from the fitted curve at half-maximal effect.

SMILES | Potency
CCN(CC)CCCNC(=O)c1cn(CC)c2cc(N3CCN(C(=O)c4ccco4)CC3)c(F)cc2c1=O | inconclusive: 2.94 µM [inhibitor, partial curve]
Cc1ccc(C(=O)N/C(=C\c2ccc([N+](=O)[O-])cc2)C(=O)NCCc2ccccc2)cc1 | inconclusive: 1.04 µM [inhibitor, full curve, poor fit]
CCOc1ccc(NC(=O)CN(C)C(=O)C2CC2C)cc1OCC (stereo not given) | inactive
Cn1nnnc1SCCNCc1ccccc1OCc1ccc(Cl)cc1 | active: 11.7 µM
O=C(CNS(=O)(=O)c1ccc(Br)cc1)NCc1ccncc1 | inconclusive: 2.62 µM [inhibitor, full curve]
COc1cc(C(=O)OCC(=O)NC2CC2)ccc1OCCC(C)C | inconclusive: 14.7 µM [inhibitor, partial curve, poor fit]
CC1CCC(C#N)(N(C)C(=O)CSc2nnc(C3CC3)n2C2CC2)CC1 (stereo not given) | inconclusive: 9.28 µM [inhibitor, single point]
CCOC(=O)c1ccc(Nc2ncnc3c2cnn3C)cc1 | inconclusive: 18.5 µM [inhibitor, partial curve, poor fit]
COC(=O)c1ccc(COc2ccc(/C=N/O)cc2)o1 | inconclusive: 16.5 µM [inhibitor, single point]
COc1ccc(N(CC(=O)NC(C)(C)C)C(=O)CCC(=O)Nc2nccs2)c(OC)c1 | inactive
COc1ccc(OC)c(NC(=O)c2cc3c(=O)n4ccccc4nc3n2C)c1 | inconclusive: 1.31 µM [inhibitor, single point]
CC(=O)c1ccc(OC(=O)C(CCS(C)(=O)=O)N2C(=O)c3ccccc3C2=O)cc1 (stereo not given) | inconclusive: 0.0738 µM [inhibitor, full curve, poor fit]
Cn1c(-c2cccc(Br)c2)cnc1NCc1cccnc1 | inconclusive: 5.22 µM [inhibitor, partial curve, poor fit]
C=C1N(C)c2cc([N+](=O)[O-])c(N)cc2C1(C)C | inconclusive: 18.5 µM [inhibitor, partial curve, poor fit]
Cc1ccc(/C=C2\Oc3cc(OCC(=O)NN)ccc3C2=O)o1 | inconclusive: 10.4 µM [inhibitor, partial curve]
CCCCn1nnc(NC(=O)c2ccc([N+](=O)[O-])cc2Cl)n1 | inconclusive: 3.7 µM [inhibitor, single point]
CCc1nn(CCCC(=O)NCc2ccccc2C)c(=O)c2cc3occc3n12 | inactive
C=CCOC(=O)/C(=C/c1ccco1)NC(=O)/C=C/c1ccccc1 | inconclusive: 18.5 µM [inhibitor, single point]
Cc1ccc(NC(=O)COC(=O)CN2C(=O)NC3(CCCC3)C2=O)cc1F | inactive
Cc1ccc(S(=O)(=O)c2nc(-c3ccco3)oc2SC(C)C)cc1 | inconclusive: 6.57 µM [inhibitor, partial curve, poor fit]
COc1ccccc1NC(=S)NCC1CCC(CNC(=S)Nc2ccccc2OC)CC1 (stereo not given) | inconclusive: 9.28 µM [inhibitor, partial curve, poor fit]
COc1cc(C2NC(C(=O)O)CS2)ccc1OCc1ccccc1C#N (stereo not given) | inconclusive: 0.0828 µM [inhibitor, full curve, poor fit]

Exported as comma-separated lines: 17 of the compounds above.
SMILES,Potency
CCN(CC)CCCNC(=O)c1cn(CC)c2cc(N3CCN(C(=O)c4ccco4)CC3)c(F)cc2c1=O,"inconclusive: 2.94 µM [inhibitor, partial curve]"
CCOc1ccc(NC(=O)CN(C)C(=O)C2CC2C)cc1OCC (stereo not given),inactive
Cn1nnnc1SCCNCc1ccccc1OCc1ccc(Cl)cc1,active: 11.7 µM
O=C(CNS(=O)(=O)c1ccc(Br)cc1)NCc1ccncc1,"inconclusive: 2.62 µM [inhibitor, full curve]"
COc1cc(C(=O)OCC(=O)NC2CC2)ccc1OCCC(C)C,"inconclusive: 14.7 µM [inhibitor, partial curve, poor fit]"
CC1CCC(C#N)(N(C)C(=O)CSc2nnc(C3CC3)n2C2CC2)CC1 (stereo not given),"inconclusive: 9.28 µM [inhibitor, single point]"
CCOC(=O)c1ccc(Nc2ncnc3c2cnn3C)cc1,"inconclusive: 18.5 µM [inhibitor, partial curve, poor fit]"
COc1ccc(N(CC(=O)NC(C)(C)C)C(=O)CCC(=O)Nc2nccs2)c(OC)c1,inactive
COc1ccc(OC)c(NC(=O)c2cc3c(=O)n4ccccc4nc3n2C)c1,"inconclusive: 1.31 µM [inhibitor, single point]"
CC(=O)c1ccc(OC(=O)C(CCS(C)(=O)=O)N2C(=O)c3ccccc3C2=O)cc1 (stereo not given),"inconclusive: 0.0738 µM [inhibitor, full curve, poor fit]"
Cn1c(-c2cccc(Br)c2)cnc1NCc1cccnc1,"inconclusive: 5.22 µM [inhibitor, partial curve, poor fit]"
C=C1N(C)c2cc([N+](=O)[O-])c(N)cc2C1(C)C,"inconclusive: 18.5 µM [inhibitor, partial curve, poor fit]"
CCc1nn(CCCC(=O)NCc2ccccc2C)c(=O)c2cc3occc3n12,inactive
C=CCOC(=O)/C(=C/c1ccco1)NC(=O)/C=C/c1ccccc1,"inconclusive: 18.5 µM [inhibitor, single point]"
Cc1ccc(S(=O)(=O)c2nc(-c3ccco3)oc2SC(C)C)cc1,"inconclusive: 6.57 µM [inhibitor, partial curve, poor fit]"
COc1ccccc1NC(=S)NCC1CCC(CNC(=S)Nc2ccccc2OC)CC1 (stereo not given),"inconclusive: 9.28 µM [inhibitor, partial curve, poor fit]"
COc1cc(C2NC(C(=O)O)CS2)ccc1OCc1ccccc1C#N (stereo not given),"inconclusive: 0.0828 µM [inhibitor, full curve, poor fit]"

Next results.

SMILES | Potency
COc1ccc(CNC(=O)C(c2ccco2)N(C(=O)CNS(=O)(=O)c2ccccc2)c2ccccc2C)cc1 (stereo not given) | inconclusive: 18.5 µM [inhibitor, single point]
COc1ccc(C(=O)Nc2ccc(/C(C)=N/NC(=O)c3ccccc3O)cc2)cc1OC | inactive
CCC1CCCCN1C(=S)Nc1ccc(SC(F)F)cc1 (stereo not given) | inactive
CC(C)=C(NC(=O)c1ccccc1)C(=O)Nc1cccc(C(=O)O)c1 | inactive
CC(C)CCn1c(N2CCc3ccccc3C2)nc2c1c(=O)[nH]c(=O)n2C | inconclusive: 2.08 µM [inhibitor, full curve, poor fit]
COc1cc2ncnc(NCc3cc(F)ccc3F)c2cc1OC | inconclusive: 16.5 µM [inhibitor, single point]
CCOC(=O)c1cnc2ccccc2c1NCc1ccco1 | inconclusive: 18.5 µM [inhibitor, single point]
Cc1onc(-c2ccccc2)c1C(=O)OCC(=O)Nc1ccc2c(c1)OCO2 | inconclusive: 16.5 µM [inhibitor, single point]
N/C(=N\OC(=O)CCCC(=O)O)c1ncc(C(F)(F)F)cc1Cl | inconclusive: 18.5 µM [inhibitor, single point]
O=C(NC1CC2CCC(C1)N2Cc1ccco1)c1ccccc1 (stereo not given) | inconclusive: 18.5 µM [inhibitor, single point]
O=C(CSc1nc2ccc(NC(=O)C3CCCCC3)cc2s1)NCC1CCCO1 (stereo not given) | inconclusive: 11.7 µM [inhibitor, single point]
CCOC(=O)C1(Cc2cccc(OC)c2)CCCN(Cc2ccc(NC(C)=O)cc2)C1 (stereo not given) | inconclusive: 2.08 µM [inhibitor, full curve, poor fit]
Oc1ccccc1-[n+]1c(-c2ccccc2)cc(-c2ccccc2)cc1-c1ccccc1 | active: 1.47 µM
O=C(O)c1cccc(Nc2ncnc3ccccc23)c1 | inconclusive: 5.86 µM [inhibitor, partial curve, poor fit]
CCN(CC)C(=O)CSc1nnc(CCNC(=O)OC(C)(C)C)o1 | inconclusive: 0.0928 µM [inhibitor, full curve, poor fit]
COc1ccc(CNC(=O)CCCCCn2c(SCC#N)nc3cc4c(cc3c2=O)OCO4)cc1 | inactive
O=C1COc2ccc(C(=O)COC(=O)COc3ccccc3[N+](=O)[O-])cc2N1 | inconclusive: 18.5 µM [inhibitor, single point]
O=C(CN1CCN(c2ncccn2)CC1)N1CCCc2c1c(=O)oc1ccc(O)cc21 | inconclusive: 18.5 µM [inhibitor, single point]
CC(=O)c1ccccc1OCCOCCOCCOc1ccccc1C(C)=O | inconclusive: 10.4 µM [inhibitor, partial curve, poor fit]
C[C@@]1([C@@H](NP(=O)(c2ccccc2)c2ccccc2)c2ccccc2)C[C@H]1CCO | inconclusive: 14.7 µM [inhibitor, single point]
COC(=O)c1ccccc1C(=O)c1ccc(OCCN2CCCCC2)cc1 | inactive
CCCOc1ccc(-c2nc(OC)c3ccccc3n2)cc1 | inactive

SMILES | Potency
CNC(=O)c1ccsc1NC(=O)CCS(=O)(=O)c1ccc(C)cc1 | inconclusive: 18.5 µM [inhibitor, single point]
CCOC(=O)C1CCN(c2cc3c(cc2NC(=O)c2ccc(OC)c(OC)c2)n(C)c(=O)n3C)CC1 | inconclusive: 9.28 µM [inhibitor, partial curve, poor fit]
COC(=O)C1=C(C)N(CC2CC2)C(=NCc2cccc(Cl)c2)N[C@H]1c1ccccc1 | inconclusive: 4.65 µM [inhibitor, partial curve, poor fit] and inconclusive: 11.7 µM [inhibitor, single point]
O=C(Nc1ccc(Oc2ccccc2)cc1)c1cnc2n(c1=O)CCS2 | active: 13.1 µM
CCCc1ccc(-c2ccc(C(=O)O)cc2)nc1 | inactive
COc1ccc(C)c2sc(N(CCN(C)C)C(=O)/C=C/c3cccs3)nc12 | inconclusive: 11.7 µM [inhibitor, single point]
CCOc1cnn(Cc2ccccc2)c(=O)c1SCc1ccccc1 | inconclusive: 18.5 µM [inhibitor, single point]
OCCC1CN(Cc2cccn2-c2ncccn2)CCN1Cc1ccccc1 (stereo not given) | active: 13.1 µM
COc1ccc(N(C(=O)c2ccc(S(=O)(=O)N3CCOCC3)cc2)C2C=CS(=O)(=O)C2)cc1 (stereo not given) | inconclusive: 3.29 µM [inhibitor, single point]
Cc1ccnc(NC(=O)CCC(=O)N(CC(=O)NCc2ccccc2)Cc2ccco2)c1 | inconclusive: 9.28 µM [inhibitor, single point]
COc1ccc2cc3cc(C(=O)Nc4ccccc4N4CCN(C)CC4)oc3nc2c1 | inconclusive: 4.15 µM [inhibitor, partial curve]
CC(C)C[C@@]12C(=O)N(c3cccc(Br)c3)C(=O)N1[C@H](c1ccc(F)cc1)[C@@H]1C(=O)N(C3CCCCC3)C(=O)[C@@H]12 | inconclusive: 1.65 µM [inhibitor, full curve]
Cc1ccc(/C=C2\SC(=S)N(CCCC(=O)Nc3ccccc3C(=O)O)C2=O)cc1 | inconclusive: 11.7 µM [inhibitor, partial curve, poor fit]
CC(=O)N1[C@H](C)C=C[C@]1(Cc1ccccc1)C(=O)NCc1cc(F)cc(C(F)(F)F)c1 | inconclusive: 20.8 µM [inhibitor, single point]
Cn1cc(Cl)c(C(=O)Nc2nc3ccc([N+](=O)[O-])cc3s2)n1 | inactive
CCOC(=O)c1[nH]c(C)c(C(=O)OCCOc2cccc(C)c2)c1C | active: 2.62 µM
C=CCSc1nsc(N)n1 | inconclusive: 0.828 µM [inhibitor, full curve]
CCC(CC)C(=O)NCc1ccc2c(c1)cc(C)n2C | inactive
COc1cccc(OCc2nnc3n2N=C(c2ccccc2)C(CC(=O)O)S3)c1 (stereo not given) | inactive
COc1cccc2c(=O)n(CC(=O)N3CCCCC3)ccc12 | inactive
Cc1ccc(-c2csc(NC(=O)/C=C/c3cccs3)n2)cc1C | inconclusive: 18.5 µM [inhibitor, single point]
